At least one structure is not confirmed: it was looked up by name or label, or the drawing left a doubt.
System: M. tuberculosis isolates
Assay type: cell-based, Mycobacterium tuberculosis
Set-up: unit not given beside the values
Details: approximately 200 sensitive and resistant clinical isolates

CO[C@H]1/C=C/O[C@@]2(C)Oc3c(C)c(O)c4c(O)c(c(/C=N/N5CCN(C)CC5)c(O)c4c3C2=O)NC(=O)/C(C)=C\C=C\[C@H](C)[C@H](O)[C@@H](C)[C@@H](O)[C@@H](C)[C@H](OC(C)=O)[C@@H]1C [Rifampicin]
MIC against M. tuberculosis isolates, Range: 0.12->16.0

From patent US7491721B2, “Antimycobacterial pharmaceutical composition” (priority 2004, dated 2009)
